According to patent US20230047208A1, “RNA Splicing Modulation” (The General Hospital Corporation, priority 2020, published 2023):
Further values from the same series stand in other lists.

System: wildtype (WT) human fibroblast cell lines
Assay: Transcriptome-wide splicing by RNA sequencing (RNASeq), exon triplet PSI change;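 as to Effect: six WT fibroblast lines treated seven days versus DMSO vehicle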;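 as to T-PSI: T-PSI is average treated PSI after seven days of treatment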
Type: cell-based
Parameters: key to Effect: Exclusion; Inclusion; Unchanged
Conditions: seven days
From the text: FIG. 2A provides a representation of an exon triplet. Exon U is upstream of Exon X, which is upstream of Exon D. R1, R2 and R3 represent RNA sequencing (RNASeq) reads spanning the regions between two adjacent exons. UI1, I1X, XI2 and I2D are four regions flanking the four splice sites of the exon-triplet. Each flanking region consists of 25 exonic base pairs and 75 intronic base pairs.
FIG. 2B provides a volcano plot showing the ψ (PSI: Percent Spliced-In) changes in splicing after treatment with Compound (I). Each dot represents one of the 161,097 expressed exon triplets in human fibroblasts. The x axis represents the ψ changes after treatment and the y axis represents the False Discovery Rate (FDR) (log 10 transformed). […] The horizontal dashed line indicates an FDR of 0.1. The dots on the right side of the right vertical dashed line and above the horizontal dashed line represent the exon-triplets with an increase for Exon X inclusion (Δψ≥0.1 and FDR<0.1) while the dots on left side of the left vertical dashed line and above the horizontal dashed line represent an increase for Exon X exclusion (Δψ≤−0.1 and FDR<0.1). Black dots in-between the two vertical dashed lines represent exon-triplets unchanged from the treatment.
In some aspects, analysis is performed on data derived from the assay to measure the magnitude of splicing to determine the amount of exons spliced into an mRNA transcript that is produced in the presence of Compound (I) relative to the amount in the absence of Compound (I) or presence of a negative control. In a preferred aspect, the method utilized is calculation of change in Percent Spliced In (ΔPSI). […] The ΔPSI value is derived from the formula: […]
The values for “a” and “b” represent the number of reads supporting the probability for potential inclusion or exclusion of an exon in an RNA transcript. The “a” value is derived from the number of reads within an exon triplet covering, in 5′ to 3′ order: the last few bases (>1 nucleotide) of an upstream exon operably linked to the first few bases (>1 nucleotide) of a middle exon. The “b” value is derived from the number of reads within an exon triplet covering, in 5′ to 3′ order: the last few bases (>1 nucleotide) of the middle exon operably linked to the first few bases (>1 nucleotide) of a downstream exon. The number of reads will indicate whether the splice junction of a middle exon has been identified as potentially having a CNN Motif(s) by the CNN Model described herein, wherein the inclusion or exclusion of the middle exon may be modulated in the presence of Compound (I) to produce one or more mature RNA isoforms from the gene transcript. The value for “c” represents the number of reads supporting the exclusion of the middle exon.
The effect on splicing modulation and corresponding splice differences toward exon inclusion or exclusion was determined by counting the RNASeq reads covering two splice junctions of exon triplets (three consecutive exons: Exon U, Exon X, Exon D) and the corresponding intervening introns, then comparing the change in Percent Spliced In (ΔPSI or Δψ) of the middle exon (Exon X) after treatment (as shown in FIG. 2A)^52,53. 934 exon triplets were identified showing differential middle exon inclusion or exclusion in response to Compound (I) treatment. Of these, 254 were exon inclusion events (Δψ≥0.1 and FDR<0.1) and 680 were exon exclusion events (Δψ≤−0.1 and FDR<0.1) (as shown in FIG. 2B). […] The splicing results were evaluated by RT-PCR in independent replicate experiments, confirming all the calculated Δψ values. […]

[1] = SMARCA1 Exon 128627017-128627052
[2] = SMPDL3A Exon 123116822-123117035
[3] = SNRPA1 Exon 101826419-101826498

In the case of `Clc1nc(NCc2ccncc2)c2cc[nH]c2n1` [Compound (I), 2-chloro-N-(pyridin-4-ylmethyl)-7H-pyrrolo[2,3-d]pyrimidin-4-amine], the Effect (SLMAP Exon 57893611-57893733) is reported as “Unc”, the T-PSI (SLMAP Exon 57893611-57893733) is reported as 0.899 and the ΔPSI (SLMAP Exon 57893611-57893733) is reported as 0.000. The Effect (SLMO1 Exon 12427040-12427110) was “Exc”, the T-PSI (SLMO1 Exon 12427040-12427110) was 0.854 and the ΔPSI (SLMO1 Exon 12427040-12427110) was −0.130. The Effect (SLTM Exon 59191668-59192082) was “Unc”, the T-PSI (SLTM Exon 59191668-59192082) was 0.731 and the ΔPSI (SLTM Exon 59191668-59192082) was 0.001. The Effect (SLTM Exon 59191668-59192136) was “Unc”, the T-PSI (SLTM Exon 59191668-59192136) was 0.763 and the ΔPSI (SLTM Exon 59191668-59192136) was −0.007. The Effect (SLTM Exon 59204762-59204809) was “Inc”, the T-PSI (SLTM Exon 59204762-59204809) was 0.928 and the ΔPSI (SLTM Exon 59204762-59204809) was 0.104. For the same molecule, the Effect (SMAD5 Exon 135483521-135483595) was “Exc”, the T-PSI (SMAD5 Exon 135483521-135483595) was 0.590 and the ΔPSI (SMAD5 Exon 135483521-135483595) was −0.197. The Effect [1] was “Inc”, the T-PSI [1] was 0.870 and the ΔPSI [1] was 0.253. The Effect (SMARCD1 Exon 50481146-50481268) was “Exc”, the T-PSI (SMARCD1 Exon 50481146-50481268) was 0.548 and the ΔPSI (SMARCD1 Exon 50481146-50481268) was −0.252. The Effect (SMC5 Exon 72882839-72882891) was “Exc”, the T-PSI (SMC5 Exon 72882839-72882891) was 0.854 and the ΔPSI (SMC5 Exon 72882839-72882891) was −0.125. The Effect (SMEK2 Exon 55800755-55800913) was “Exc”, the T-PSI (SMEK2 Exon 55800755-55800913) was 0.819 and the ΔPSI (SMEK2 Exon 55800755-55800913) was −0.136. The Effect (SMEK2 Exon 55805383-55805478) was “Unc”, the T-PSI (SMEK2 Exon 55805383-55805478) was 0.445 and the ΔPSI (SMEK2 Exon 55805383-55805478) was −0.005. The Effect (SMG7 Exon 183471388-183471526) was “Unc”, the T-PSI (SMG7 Exon 183471388-183471526) was 0.200 and the ΔPSI (SMG7 Exon 183471388-183471526) was −0.006. For the same molecule, the Effect [2] was “Exc”, the T-PSI [2] was 0.702 and the ΔPSI [2] was −0.152. For the same molecule, the Effect (SMURF2 Exon 62590109-62590222) was “Unc”, the T-PSI (SMURF2 Exon 62590109-62590222) was 0.111 and the ΔPSI (SMURF2 Exon 62590109-62590222) was −0.001. For the same molecule, the Effect (SMURF2 Exon 62602720-62602758) was “Exc”, the T-PSI (SMURF2 Exon 62602720-62602758) was 0.742 and the ΔPSI (SMURF2 Exon 62602720-62602758) was −0.150. The Effect (SNAPC5 Exon 66787668-66787757) was “Exc”, the T-PSI (SNAPC5 Exon 66787668-66787757) was 0.646 and the ΔPSI (SNAPC5 Exon 66787668-66787757) was −0.133. For the same molecule, the Effect (SNED1 Exon 242002208-242002321) was “Exc”, the T-PSI (SNED1 Exon 242002208-242002321) was 0.660 and the ΔPSI (SNED1 Exon 242002208-242002321) was −0.220. The Effect (SNHG14 Exon 25330337-25330469) was “Unc”, the T-PSI (SNHG14 Exon 25330337-25330469) was 0.852 and the ΔPSI (SNHG14 Exon 25330337-25330469) was 0.001. The Effect (SNHG14 Exon 25360446-25360803) was “Exc”, the T-PSI (SNHG14 Exon 25360446-25360803) was 0.860 and the ΔPSI (SNHG14 Exon 25360446-25360803) was −0.119. The Effect (SNHG15 Exon 45023956-45024025) was “Exc”, the T-PSI (SNHG15 Exon 45023956-45024025) was 0.832 and the ΔPSI (SNHG15 Exon 45023956-45024025) was −0.127. The Effect (SNRNP70 Exon 49605371-49605430) was “Inc”, the T-PSI (SNRNP70 Exon 49605371-49605430) was 0.302 and the ΔPSI (SNRNP70 Exon 49605371-49605430) was 0.102. For the same molecule, the Effect (SNRNP70 Exon 49605371-49605442) was “Inc”, the T-PSI (SNRNP70 Exon 49605371-49605442) was 0.299 and the ΔPSI (SNRNP70 Exon 49605371-49605442) was 0.100. The Effect (SNRNP70 Exon 49605371-49606844) was “Inc”, the T-PSI (SNRNP70 Exon 49605371-49606844) was 0.325 and the ΔPSI (SNRNP70 Exon 49605371-49606844) was 0.114. For the same molecule, the Effect [3] was “Exc”, the T-PSI [3] was 0.499 and the ΔPSI [3] was −0.209. The Effect (SNRPG Exon 70516482-70516504) was “Exc”, the T-PSI (SNRPG Exon 70516482-70516504) was 0.696 and the ΔPSI (SNRPG Exon 70516482-70516504) was −0.160. For the same molecule, the Effect (SNX14 Exon 86248556-86248582) was “Exc”, the T-PSI (SNX14 Exon 86248556-86248582) was 0.668 and the ΔPSI (SNX14 Exon 86248556-86248582) was −0.160. For the same molecule, the Effect (SNX21 Exon 44468961-44469097) was “Exc”, the T-PSI (SNX21 Exon 44468961-44469097) was 0.167 and the ΔPSI (SNX21 Exon 44468961-44469097) was −0.148. For the same molecule, the Effect (SNX21 Exon 44469087-44469097) was “Exc”, the T-PSI (SNX21 Exon 44469087-44469097) was 0.263 and the ΔPSI (SNX21 Exon 44469087-44469097) was −0.160. For the same molecule, the Effect (SPATA7 Exon 88859737-88859832) was “Inc”, the T-PSI (SPATA7 Exon 88859737-88859832) was 0.925 and the ΔPSI (SPATA7 Exon 88859737-88859832) was 0.255. The Effect (SPATA20 Exon 48625026-48625128) was “Exc”, the T-PSI (SPATA20 Exon 48625026-48625128) was 0.815 and the ΔPSI (SPATA20 Exon 48625026-48625128) was −0.133. The Effect (SPATA20 Exon 48625026-48625315) was “Exc”, the T-PSI (SPATA20 Exon 48625026-48625315) was 0.531 and the ΔPSI (SPATA20 Exon 48625026-48625315) was −0.259. The Effect (SPATA20 Exon 48625081-48625128) was “Exc”, the T-PSI (SPATA20 Exon 48625081-48625128) was 0.792 and the ΔPSI (SPATA20 Exon 48625081-48625128) was −0.151. The Effect (SPATA20 Exon 48625081-48625315) was “Exc”, the T-PSI (SPATA20 Exon 48625081-48625315) was 0.347 and the ΔPSI (SPATA20 Exon 48625081-48625315) was −0.300. The Effect (SPATA20 Exon 48626647-48626848) was “Exc”, the T-PSI (SPATA20 Exon 48626647-48626848) was 0.856 and the ΔPSI (SPATA20 Exon 48626647-48626848) was −0.123. The Effect (SPDL1 Exon 169017757-169017833) was “Inc”, the T-PSI (SPDL1 Exon 169017757-169017833) was 0.355 and the ΔPSI (SPDL1 Exon 169017757-169017833) was 0.248. For the same molecule, the Effect (SPDL1 Exon 169017760-169017833) was “Inc”, the T-PSI (SPDL1 Exon 169017760-169017833) was 0.345 and the ΔPSI (SPDL1 Exon 169017760-169017833) was 0.241. For the same molecule, the Effect (SPEN Exon 16202697-16203173) was “Unc”, the T-PSI (SPEN Exon 16202697-16203173) was 0.861 and the ΔPSI (SPEN Exon 16202697-16203173) was 0.002. The Effect (SPIDR Exon 48320423-48320523) was “Unc”, the T-PSI (SPIDR Exon 48320423-48320523) was 0.878 and the ΔPSI (SPIDR Exon 48320423-48320523) was −0.007. The Effect (SPPL2A Exon 51018270-51018323) was “Inc” and the T-PSI (SPPL2A Exon 51018270-51018323) was 0.554.
